Reference: the supplement of paper PMC7661543
Differences between knockout arms are mostly noise.

Tested on: MDA-MB-231
Experiment: relative cell number vs DMSO control (72 h) (% of DMSO); higher = less growth inhibition (more cells)
Protocol: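 QMAP-Seq: a pool of 5 breast cancer cell lines (ZR-75-1, SKBR3, HCC-38, MDA-MB-231, BT-20), each carrying 12 doxycycline-inducible Cas9 sgRNA perturbations (11 knockouts plus non-targeting sgNT), was treated with compounds for 72 h at four 10-fold doses (10 nM-10 uM or 1 nM-1 uM range). Barcodes were amplified and sequenced, and cell number was interpolated from 293T spike-in standard curves. The result is expressed as % of the median of DMSO wells. Two biological replicates.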

CC(C)C[C@H](NC(=O)CNC(=O)c1cc(Cl)ccc1Cl)B(O)O [MLN2238]
Conditions | relative cell number
sgRNA knockout: sgATF3, 10 nM | 95.4
sgRNA knockout: sgATF3, 100 nM | 62.8
sgRNA knockout: sgATF3, 1000 nM | 8.12
sgRNA knockout: sgATF3, 10000 nM | 6.25
sgRNA knockout: sgATF4, 10 nM | 56.1
sgRNA knockout: sgATF4, 100 nM | 39
sgRNA knockout: sgATF4, 1000 nM | 6.62
sgRNA knockout: sgATF4, 10000 nM | 7.48
sgRNA knockout: sgATF6, 10 nM | 92.6
sgRNA knockout: sgATF6, 100 nM | 50.9
sgRNA knockout: sgATF6, 1000 nM | 10
sgRNA knockout: sgATF6, 10000 nM | 5.54
sgRNA knockout: sgATG7, 10 nM | 108
sgRNA knockout: sgATG7, 100 nM | 48
sgRNA knockout: sgATG7, 1000 nM | 8.22
sgRNA knockout: sgATG7, 10000 nM | 8.52
sgRNA knockout: sgERN1, 10 nM | 87.3
sgRNA knockout: sgERN1, 100 nM | 45.9
sgRNA knockout: sgERN1, 1000 nM | 8.21
sgRNA knockout: sgERN1, 10000 nM | 8
sgRNA knockout: sgHSF1, 10 nM | 63.3
sgRNA knockout: sgHSF1, 100 nM | 39.9
sgRNA knockout: sgHSF1, 1000 nM | 11.1
sgRNA knockout: sgHSF1, 10000 nM | 4.27
sgRNA knockout: sgHSF2, 10 nM | 101
sgRNA knockout: sgHSF2, 100 nM | 60.7
sgRNA knockout: sgHSF2, 1000 nM | 6.78
sgRNA knockout: sgHSF2, 10000 nM | 6.05
sgRNA knockout: sgKEAP1, 10 nM | 98.6
sgRNA knockout: sgKEAP1, 100 nM | 56.1
sgRNA knockout: sgKEAP1, 1000 nM | 7.84
sgRNA knockout: sgKEAP1, 10000 nM | 3.92
sgRNA knockout: sgNFE2L2, 10 nM | 74.5
sgRNA knockout: sgNFE2L2, 100 nM | 40.2
sgRNA knockout: sgNFE2L2, 1000 nM | 6.53
sgRNA knockout: sgNFE2L2, 10000 nM | 5.04
sgRNA knockout: sgSLC35F2, 10 nM | 105
sgRNA knockout: sgSLC35F2, 100 nM | 56
sgRNA knockout: sgSLC35F2, 1000 nM | 5.93
sgRNA knockout: sgSLC35F2, 10000 nM | 4.29
sgRNA knockout: sgXBP1, 10 nM | 65.4
sgRNA knockout: sgXBP1, 100 nM | 41.6
sgRNA knockout: sgXBP1, 1000 nM | 10.2
sgRNA knockout: sgXBP1, 10000 nM | 6.63

COc1cc(-n2c(=S)[nH]c3ccccc3c2=O)c(Cl)cc1Cl [Mdivi1]
Conditions | relative cell number
sgRNA knockout: sgATF3, 10 nM | 88.9
sgRNA knockout: sgATF3, 100 nM | 86
sgRNA knockout: sgATF3, 1000 nM | 88.9
sgRNA knockout: sgATF3, 10000 nM | 63.1
sgRNA knockout: sgATF4, 10 nM | 74.9
sgRNA knockout: sgATF4, 100 nM | 95.8
sgRNA knockout: sgATF4, 1000 nM | 126
sgRNA knockout: sgATF4, 10000 nM | 86
sgRNA knockout: sgATF6, 10 nM | 96.8
sgRNA knockout: sgATF6, 100 nM | 96.6
sgRNA knockout: sgATF6, 1000 nM | 89.5
sgRNA knockout: sgATF6, 10000 nM | 75.6
sgRNA knockout: sgATG7, 10 nM | 86.5
sgRNA knockout: sgATG7, 100 nM | 88
sgRNA knockout: sgATG7, 1000 nM | 95.8
sgRNA knockout: sgATG7, 10000 nM | 72.4
sgRNA knockout: sgERN1, 10 nM | 110.3
sgRNA knockout: sgERN1, 100 nM | 147
sgRNA knockout: sgERN1, 1000 nM | 83.9
sgRNA knockout: sgERN1, 10000 nM | 76.6
sgRNA knockout: sgHSF1, 10 nM | 81.9
sgRNA knockout: sgHSF1, 100 nM | 77.36
sgRNA knockout: sgHSF1, 1000 nM | 76.2
sgRNA knockout: sgHSF1, 10000 nM | 80.1
sgRNA knockout: sgHSF2, 10 nM | 103
sgRNA knockout: sgHSF2, 100 nM | 79.8
sgRNA knockout: sgHSF2, 1000 nM | 88.1
sgRNA knockout: sgHSF2, 10000 nM | 67.9
sgRNA knockout: sgKEAP1, 10 nM | 105
sgRNA knockout: sgKEAP1, 100 nM | 87.5
sgRNA knockout: sgKEAP1, 1000 nM | 90
sgRNA knockout: sgKEAP1, 10000 nM | 68.5
sgRNA knockout: sgNFE2L2, 10 nM | 79.7
sgRNA knockout: sgNFE2L2, 100 nM | 92.7
sgRNA knockout: sgNFE2L2, 1000 nM | 112
sgRNA knockout: sgNFE2L2, 10000 nM | 80
sgRNA knockout: sgSLC35F2, 10 nM | 89.1
sgRNA knockout: sgSLC35F2, 100 nM | 74.4
sgRNA knockout: sgSLC35F2, 1000 nM | 93.2
sgRNA knockout: sgSLC35F2, 10000 nM | 72.7
sgRNA knockout: sgXBP1, 10 nM | 86.6
sgRNA knockout: sgXBP1, 100 nM | 88.9
sgRNA knockout: sgXBP1, 1000 nM | 108
sgRNA knockout: sgXBP1, 10000 nM | 76.8

O=C1c2c(O)ccc(O)c2C(=O)c2c(NCCNCCO)ccc(NCCNCCO)c21 [Mitoxantrone]
Conditions | relative cell number
sgRNA knockout: sgATF3, 10 nM | 37.3
sgRNA knockout: sgATF3, 100 nM | 16.5
sgRNA knockout: sgATF3, 1000 nM | 8.86
sgRNA knockout: sgATF3, 10000 nM | 8.06
sgRNA knockout: sgATF4, 10 nM | 31.5
sgRNA knockout: sgATF4, 100 nM | 21.5
sgRNA knockout: sgATF4, 1000 nM | 13.9
sgRNA knockout: sgATF4, 10000 nM | 9.61
sgRNA knockout: sgATF6, 10 nM | 26.7
sgRNA knockout: sgATF6, 100 nM | 15.8
sgRNA knockout: sgATF6, 1000 nM | 9.33
sgRNA knockout: sgATF6, 10000 nM | 6.27
sgRNA knockout: sgATG7, 10 nM | 29.1
sgRNA knockout: sgATG7, 100 nM | 19.9
sgRNA knockout: sgATG7, 1000 nM | 7
sgRNA knockout: sgATG7, 10000 nM | 6.48
sgRNA knockout: sgERN1, 10 nM | 26.9
sgRNA knockout: sgERN1, 100 nM | 14.9
sgRNA knockout: sgERN1, 1000 nM | 6.36
sgRNA knockout: sgERN1, 10000 nM | 9.18
sgRNA knockout: sgHSF1, 10 nM | 29.37
sgRNA knockout: sgHSF1, 100 nM | 12.4
sgRNA knockout: sgHSF1, 1000 nM | 8.26
sgRNA knockout: sgHSF1, 10000 nM | 9.11
sgRNA knockout: sgHSF2, 10 nM | 34.7
sgRNA knockout: sgHSF2, 100 nM | 18.2
sgRNA knockout: sgHSF2, 1000 nM | 7.45
sgRNA knockout: sgHSF2, 10000 nM | 9.84
sgRNA knockout: sgKEAP1, 10 nM | 27.7
sgRNA knockout: sgKEAP1, 100 nM | 15.3
sgRNA knockout: sgKEAP1, 1000 nM | 10.7
sgRNA knockout: sgKEAP1, 10000 nM | 7.42
sgRNA knockout: sgNFE2L2, 10 nM | 30
sgRNA knockout: sgNFE2L2, 100 nM | 15.8
sgRNA knockout: sgNFE2L2, 1000 nM | 9.24
sgRNA knockout: sgNFE2L2, 10000 nM | 7.31
sgRNA knockout: sgSLC35F2, 10 nM | 33
sgRNA knockout: sgSLC35F2, 100 nM | 11.4
sgRNA knockout: sgSLC35F2, 1000 nM | 6.64
sgRNA knockout: sgSLC35F2, 10000 nM | 9.69
sgRNA knockout: sgXBP1, 10 nM | 34.9
sgRNA knockout: sgXBP1, 100 nM | 21.1
sgRNA knockout: sgXBP1, 1000 nM | 6.17
sgRNA knockout: sgXBP1, 10000 nM | 7.76
